# Experimental data taken from the supplement of paper PMC10032668.
# By UniProt entry, the sequences of proteins in these tests, tags left out.
# CALR, P27797, UniProt P27797, whole entry: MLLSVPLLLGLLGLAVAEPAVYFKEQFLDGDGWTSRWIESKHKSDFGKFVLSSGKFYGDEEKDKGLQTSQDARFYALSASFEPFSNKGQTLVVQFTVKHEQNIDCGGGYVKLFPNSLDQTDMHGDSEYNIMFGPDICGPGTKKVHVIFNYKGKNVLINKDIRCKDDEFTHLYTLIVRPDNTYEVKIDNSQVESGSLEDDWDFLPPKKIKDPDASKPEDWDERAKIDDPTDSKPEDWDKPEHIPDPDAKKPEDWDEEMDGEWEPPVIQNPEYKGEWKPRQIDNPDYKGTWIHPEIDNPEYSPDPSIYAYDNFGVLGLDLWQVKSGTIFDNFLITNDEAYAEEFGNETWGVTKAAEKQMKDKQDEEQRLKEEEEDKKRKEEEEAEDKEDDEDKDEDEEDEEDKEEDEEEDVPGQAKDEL
# CAMP, P49913, UniProt P49913, whole entry: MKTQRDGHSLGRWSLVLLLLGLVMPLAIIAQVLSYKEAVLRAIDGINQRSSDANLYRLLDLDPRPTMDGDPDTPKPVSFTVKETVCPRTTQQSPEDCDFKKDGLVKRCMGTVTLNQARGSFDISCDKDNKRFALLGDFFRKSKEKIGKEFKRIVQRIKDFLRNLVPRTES
# TPX2, Q9ULW0, UniProt Q9ULW0, whole entry: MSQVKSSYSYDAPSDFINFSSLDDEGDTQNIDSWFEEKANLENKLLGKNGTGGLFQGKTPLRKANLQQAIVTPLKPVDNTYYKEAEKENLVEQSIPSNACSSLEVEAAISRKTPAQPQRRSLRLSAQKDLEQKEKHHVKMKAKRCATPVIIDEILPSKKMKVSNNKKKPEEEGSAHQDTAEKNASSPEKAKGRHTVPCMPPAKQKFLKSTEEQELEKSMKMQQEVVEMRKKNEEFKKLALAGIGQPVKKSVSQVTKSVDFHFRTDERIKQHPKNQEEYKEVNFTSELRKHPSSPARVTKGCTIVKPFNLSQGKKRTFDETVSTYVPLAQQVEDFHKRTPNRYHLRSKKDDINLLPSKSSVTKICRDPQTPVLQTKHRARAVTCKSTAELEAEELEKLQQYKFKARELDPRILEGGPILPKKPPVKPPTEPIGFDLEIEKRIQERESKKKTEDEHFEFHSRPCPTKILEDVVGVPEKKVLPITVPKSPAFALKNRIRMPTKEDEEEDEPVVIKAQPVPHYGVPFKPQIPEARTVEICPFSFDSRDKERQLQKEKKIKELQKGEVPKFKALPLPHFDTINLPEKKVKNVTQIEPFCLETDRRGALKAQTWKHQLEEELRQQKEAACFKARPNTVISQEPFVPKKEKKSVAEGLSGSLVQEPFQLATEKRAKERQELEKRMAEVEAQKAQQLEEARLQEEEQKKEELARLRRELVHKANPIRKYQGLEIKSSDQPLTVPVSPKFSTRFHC
# GSPT2, Q8IYD1, UniProt Q8IYD1, whole entry: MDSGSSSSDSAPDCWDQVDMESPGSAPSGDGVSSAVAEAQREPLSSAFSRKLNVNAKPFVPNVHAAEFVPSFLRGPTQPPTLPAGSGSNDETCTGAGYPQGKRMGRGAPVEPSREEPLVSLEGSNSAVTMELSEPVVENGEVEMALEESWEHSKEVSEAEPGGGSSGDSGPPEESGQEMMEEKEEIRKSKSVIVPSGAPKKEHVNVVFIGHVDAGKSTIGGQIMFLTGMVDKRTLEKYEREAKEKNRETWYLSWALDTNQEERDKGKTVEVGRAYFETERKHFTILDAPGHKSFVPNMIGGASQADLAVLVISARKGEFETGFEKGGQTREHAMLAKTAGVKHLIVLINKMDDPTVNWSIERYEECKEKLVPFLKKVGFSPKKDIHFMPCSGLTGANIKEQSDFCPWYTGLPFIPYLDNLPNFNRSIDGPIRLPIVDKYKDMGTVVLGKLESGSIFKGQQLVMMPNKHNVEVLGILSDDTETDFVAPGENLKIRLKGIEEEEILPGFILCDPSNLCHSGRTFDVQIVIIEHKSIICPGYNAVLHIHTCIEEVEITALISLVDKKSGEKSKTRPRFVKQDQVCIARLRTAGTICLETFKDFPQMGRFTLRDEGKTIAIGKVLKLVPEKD
# The list shows a part of the results. Only hits are listed; about a third recur on repeated control peptides.
# Columns and labels:
# Assay in all cases: PRISMA enrichment of interactor (LFQ) in peptide spot vs all other peptide spots (log2 fold change); higher = stronger / more specific binding of the interactor to the peptide
# C7orf50, Q9BRJ6 = molecular target: C7orf50, Q9BRJ6
# Protocol: (§1)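 PRISMA: 15-aa overlapping tiles (offset 8 aa) of 60 microproteins, plus SOS1/GLUT1 control peptides, were spot-synthesized on cellulose membranes in triplicate. Membranes were incubated with benzonase-treated HEK293T lysate, and bound proteins were identified by LC-MS/MS with LFQ. Enrichment is the log2 fold change of each protein in one spot versus all other spots. Only interactors passing the significance cutoff are listed.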
# CD81, P60033 = molecular target: CD81, P60033
# Protocol: as §1
# CDC20, Q12834 = molecular target: CDC20, Q12834
# Protocol: as §1
# CSTF3, Q12996 = molecular target: CSTF3, Q12996
# Protocol: as §1
# DHX15, O43143 = molecular target: DHX15, O43143
# Protocol: as §1
# EIF3M, Q7L2H7 = molecular target: EIF3M, Q7L2H7
# Protocol: as §1
# EIF4B, P23588 = molecular target: EIF4B, P23588
# Protocol: as §1
# EXOC4, Q96A65 = molecular target: EXOC4, Q96A65
# Protocol: as §1
# GOT2, P00505 = molecular target: GOT2, P00505
# Protocol: as §1
# INTS7, Q9NVH2 = molecular target: INTS7, Q9NVH2
# Protocol: as §1
# MRM2, Q9UI43 = molecular target: MRM2, Q9UI43
# Protocol: as §1
# MRPL16, Q9NX20 = molecular target: MRPL16, Q9NX20
# Protocol: as §1
# MYO6, Q9UM54 = molecular target: MYO6, Q9UM54
# Protocol: as §1
# NAP1L1, P55209 = molecular target: NAP1L1, P55209
# Protocol: as §1
# NUDT21, O43809 = molecular target: NUDT21, O43809
# Protocol: as §1
# PGAM1, P18669 = molecular target: PGAM1, P18669
# Protocol: as §1
# RADX, Q6NSI4 = molecular target: RADX, Q6NSI4
# Protocol: as §1
# S100A13, Q99584 = molecular target: S100A13, Q99584
# Protocol: as §1
# SREK1, Q8WXA9 = molecular target: SREK1, Q8WXA9
# Protocol: as §1
# WDR12, Q9GZL7 = molecular target: WDR12, Q9GZL7
# Protocol: as §1
# YIF1A, O95070 = molecular target: YIF1A, O95070
# Protocol: as §1
# CALU, O43852 = molecular target: CALU, O43852
# Protocol: as §1
# ODF2, Q5BJF6 = molecular target: ODF2, Q5BJF6
# Protocol: as §1
# PTDSS1, P48651 = molecular target: PTDSS1, P48651
# Protocol: as §1
# ZC3H15, Q8WU90 = molecular target: ZC3H15, Q8WU90
# Protocol: as §1
# CAD, P27708 = molecular target: CAD, P27708
# Protocol: as §1
# CHD4, Q14839 = molecular target: CHD4, Q14839
# Protocol: as §1
# EMG1, Q92979 = molecular target: EMG1, Q92979
# Protocol: as §1
# GPD1L, Q8N335 = molecular target: GPD1L, Q8N335
# Protocol: as §1
# GTF2F2, P13984 = molecular target: GTF2F2, P13984
# Protocol: as §1
# HDAC1, Q13547 = molecular target: HDAC1, Q13547
# Protocol: as §1
# KIF22, Q14807 = molecular target: KIF22, Q14807
# Protocol: as §1
# NAF1, Q96HR8 = molecular target: NAF1, Q96HR8
# Protocol: as §1
# [1] = substrate: NSF, P46459
# Protocol: as §1
# PYCR2, Q96C36 = molecular target: PYCR2, Q96C36
# Protocol: as §1
# SH3GL1, Q99961 = molecular target: SH3GL1, Q99961
# Protocol: as §1
# UQCRFS1, P47985 = molecular target: UQCRFS1, P47985
# Protocol: as §1
# WDR43, Q15061 = molecular target: WDR43, Q15061
# Protocol: as §1
# CA2, P00918 = molecular target: CA2, P00918
# Protocol: as §1
# CARD14, Q9BXL6 = molecular target: CARD14, Q9BXL6
# Protocol: as §1
# HK2, P52789 = molecular target: HK2, P52789
# Protocol: as §1
# MAZ, P56270 = molecular target: MAZ, P56270
# Protocol: as §1
# NAA15, Q9BXJ9 = molecular target: NAA15, Q9BXJ9
# Protocol: as §1
# HSPBP1, Q9NZL4 = molecular target: HSPBP1, Q9NZL4
# Protocol: as §1
# MRPL27, Q9P0M9 = molecular target: MRPL27, Q9P0M9
# Protocol: as §1
# ORC2, Q13416 = molecular target: ORC2, Q13416
# Protocol: as §1
# SFSWAP, Q12872 = molecular target: SFSWAP, Q12872
# Protocol: as §1
# SLC25A4, P12235 = molecular target: SLC25A4, P12235
# Protocol: as §1
# TRA2A, Q13595 = molecular target: TRA2A, Q13595
# Protocol: as §1
# ZNF622, Q969S3 = molecular target: ZNF622, Q969S3
# Protocol: as §1
# CALR, P27797 = molecular target: CALR, P27797
# Protocol: as §1
# CAMP, P49913 = molecular target: CAMP, P49913
# Protocol: as §1
# FABP5, Q01469 = molecular target: FABP5, Q01469
# Protocol: as §1
# FANCD2, Q9BXW9 = molecular target: FANCD2, Q9BXW9
# Protocol: as §1
# GPAT4, Q86UL3 = molecular target: GPAT4, Q86UL3
# Protocol: as §1
# GTF3C1, Q12789 = molecular target: GTF3C1, Q12789
# Protocol: as §1
# HOMER1, Q86YM7 = molecular target: HOMER1, Q86YM7
# Protocol: as §1
# KIF2A, O00139 = molecular target: KIF2A, O00139
# Protocol: as §1
# RPS19BP1, Q86WX3 = molecular target: RPS19BP1, Q86WX3
# Protocol: as §1
# SETD7, Q8WTS6 = molecular target: SETD7, Q8WTS6
# Protocol: as §1
# SNX27, Q96L92 = molecular target: SNX27, Q96L92
# Protocol: as §1
# SRSF7, Q16629 = molecular target: SRSF7, Q16629
# Protocol: as §1
# TPX2, Q9ULW0 = molecular target: TPX2, Q9ULW0
# Protocol: as §1
# TRA2B, P62995 = molecular target: TRA2B, P62995
# Protocol: as §1
# YIPF5, Q969M3 = molecular target: YIPF5, Q969M3
# Protocol: as §1
# GSPT2, Q8IYD1 = molecular target: GSPT2, Q8IYD1
# Protocol: as §1
# MRPL22, Q9NWU5 = molecular target: MRPL22, Q9NWU5
# Protocol: as §1
# NCAPH, Q15003 = molecular target: NCAPH, Q15003
# Protocol: as §1
# NUTF2, P61970 = molecular target: NUTF2, P61970
# Protocol: as §1
# PRPF4, O43172 = molecular target: PRPF4, O43172
# Protocol: as §1
# SRPRA, P08240 = molecular target: SRPRA, P08240
# Protocol: as §1
# UBE2I, P63279 = molecular target: UBE2I, P63279
# Protocol: as §1
binder,measurement,setting,value
EPVSLTACPRLLQPL [ABR],PRISMA enrichment of interactor (log2),"C7orf50, Q9BRJ6",5.44
same,PRISMA enrichment of interactor (log2),"CD81, P60033",4.25
same,PRISMA enrichment of interactor (log2),"CDC20, Q12834",4.29
same,PRISMA enrichment of interactor (log2),"CSTF3, Q12996",6.08
same,PRISMA enrichment of interactor (log2),"DHX15, O43143",5.81
same,PRISMA enrichment of interactor (log2),"EIF3M, Q7L2H7",4.62
same,PRISMA enrichment of interactor (log2),"EIF4B, P23588",7.01
same,PRISMA enrichment of interactor (log2),"EXOC4, Q96A65",4.18
same,PRISMA enrichment of interactor (log2),"GOT2, P00505",4.54
same,PRISMA enrichment of interactor (log2),"INTS7, Q9NVH2",7.64
same,PRISMA enrichment of interactor (log2),"MRM2, Q9UI43",3.84
same,PRISMA enrichment of interactor (log2),"MRPL16, Q9NX20",4.3
same,PRISMA enrichment of interactor (log2),"MYO6, Q9UM54",4.68
same,PRISMA enrichment of interactor (log2),"NAP1L1, P55209",5.92
same,PRISMA enrichment of interactor (log2),"NUDT21, O43809",4.13
same,PRISMA enrichment of interactor (log2),"PGAM1, P18669",4.58
same,PRISMA enrichment of interactor (log2),"RADX, Q6NSI4",3.65
same,PRISMA enrichment of interactor (log2),"S100A13, Q99584",5.82
same,PRISMA enrichment of interactor (log2),"SREK1, Q8WXA9",6.79
same,PRISMA enrichment of interactor (log2),"WDR12, Q9GZL7",4.04
same,PRISMA enrichment of interactor (log2),"YIF1A, O95070",4.18
QRRHGFQKRECEECK [PEX2],PRISMA enrichment of interactor (log2),"CALU, O43852",5.18
same,PRISMA enrichment of interactor (log2),"ODF2, Q5BJF6",10.3
same,PRISMA enrichment of interactor (log2),"PTDSS1, P48651",4.75
same,PRISMA enrichment of interactor (log2),"ZC3H15, Q8WU90",6.16
MKNTSWIRKNWLLVA [MKKS_2],PRISMA enrichment of interactor (log2),"CAD, P27708",5.83
same,PRISMA enrichment of interactor (log2),"CHD4, Q14839",5.23
same,PRISMA enrichment of interactor (log2),"EMG1, Q92979",4.71
same,PRISMA enrichment of interactor (log2),"GPD1L, Q8N335",4.96
same,PRISMA enrichment of interactor (log2),"GTF2F2, P13984",6.74
same,PRISMA enrichment of interactor (log2),"HDAC1, Q13547",5.46
same,PRISMA enrichment of interactor (log2),"KIF22, Q14807",4.8
same,PRISMA enrichment of interactor (log2),"NAF1, Q96HR8",4.36
same,PRISMA enrichment of interactor (log2),[1],4.62
same,PRISMA enrichment of interactor (log2),"PYCR2, Q96C36",4.6
same,PRISMA enrichment of interactor (log2),"SH3GL1, Q99961",4.5
same,PRISMA enrichment of interactor (log2),"UQCRFS1, P47985",7.76
same,PRISMA enrichment of interactor (log2),"WDR43, Q15061",4.04
NCHNSEVDSVRDRLP [DANCR],PRISMA enrichment of interactor (log2),"CA2, P00918",3.93
same,PRISMA enrichment of interactor (log2),"CARD14, Q9BXL6",4.9
same,PRISMA enrichment of interactor (log2),"HK2, P52789",6.49
same,PRISMA enrichment of interactor (log2),"MAZ, P56270",10.7
same,PRISMA enrichment of interactor (log2),"NAA15, Q9BXJ9",3.94
DFYFASIRREFRKNQ [MIEF-MP],PRISMA enrichment of interactor (log2),"CALU, O43852",4.84
same,PRISMA enrichment of interactor (log2),"HSPBP1, Q9NZL4",3.85
same,PRISMA enrichment of interactor (log2),"MRPL27, Q9P0M9",7.02
same,PRISMA enrichment of interactor (log2),"ORC2, Q13416",5.46
same,PRISMA enrichment of interactor (log2),"SFSWAP, Q12872",5.67
same,PRISMA enrichment of interactor (log2),"SLC25A4, P12235",6.28
same,PRISMA enrichment of interactor (log2),"TRA2A, Q13595",8.05
same,PRISMA enrichment of interactor (log2),"ZNF622, Q969S3",5.1
GSSFSHKSRNATDYK [RP11-12K22.1],PRISMA enrichment of interactor (log2),"CALR, P27797",5.27
same,PRISMA enrichment of interactor (log2),"CAMP, P49913",4.94
same,PRISMA enrichment of interactor (log2),"CHD4, Q14839",6.41
same,PRISMA enrichment of interactor (log2),"FABP5, Q01469",4.91
same,PRISMA enrichment of interactor (log2),"FANCD2, Q9BXW9",4.8
same,PRISMA enrichment of interactor (log2),"GPAT4, Q86UL3",4.06
same,PRISMA enrichment of interactor (log2),"GTF3C1, Q12789",4.47
same,PRISMA enrichment of interactor (log2),"HOMER1, Q86YM7",5.55
same,PRISMA enrichment of interactor (log2),"KIF2A, O00139",5.89
same,PRISMA enrichment of interactor (log2),"PTDSS1, P48651",4.46
same,PRISMA enrichment of interactor (log2),"RPS19BP1, Q86WX3",4.7
same,PRISMA enrichment of interactor (log2),"SETD7, Q8WTS6",7.48
same,PRISMA enrichment of interactor (log2),"SNX27, Q96L92",5.49
same,PRISMA enrichment of interactor (log2),"SRSF7, Q16629",5.74
same,PRISMA enrichment of interactor (log2),"TPX2, Q9ULW0",5.19
same,PRISMA enrichment of interactor (log2),"TRA2B, P62995",5.69
same,PRISMA enrichment of interactor (log2),"YIPF5, Q969M3",4.97
FTVIFSGLGNNAGGT [PVT1],PRISMA enrichment of interactor (log2),"C7orf50, Q9BRJ6",5.83
same,PRISMA enrichment of interactor (log2),"GSPT2, Q8IYD1",5.71
same,PRISMA enrichment of interactor (log2),"MRPL22, Q9NWU5",5.15
same,PRISMA enrichment of interactor (log2),"NCAPH, Q15003",6.1
same,PRISMA enrichment of interactor (log2),"NUTF2, P61970",4.45
same,PRISMA enrichment of interactor (log2),"PRPF4, O43172",5.85
same,PRISMA enrichment of interactor (log2),"SRPRA, P08240",5.15
same,PRISMA enrichment of interactor (log2),"UBE2I, P63279",4.67

# A different layout for some results above:
binder	measurement	setting	value
EPVSLTACPRLLQPL [ABR]	PRISMA enrichment of interactor (log2)	WDR12, Q9GZL7	4.04
same	PRISMA enrichment of interactor (log2)	YIF1A, O95070	4.18

# An excerpt of these results, bar-delimited:
binder | measurement | setting | value
QRRHGFQKRECEECK [PEX2] | PRISMA enrichment of interactor (log2) | PTDSS1, P48651 | 4.75
MKNTSWIRKNWLLVA [MKKS_2] | PRISMA enrichment of interactor (log2) | [1] | 4.62
NCHNSEVDSVRDRLP [DANCR] | PRISMA enrichment of interactor (log2) | CARD14, Q9BXL6 | 4.9
